No constants are given. Whether binding was seen depends on the method and setting. In cells and extracts the contact can be indirect. These calls come from enrichment with a bait or labelling near it, and not all partners need be listed.
T1: BRI2 (integral membrane protein 2B) (rat (endogenous in brain)) (UniProt Q5XIE8)
T1 sequence: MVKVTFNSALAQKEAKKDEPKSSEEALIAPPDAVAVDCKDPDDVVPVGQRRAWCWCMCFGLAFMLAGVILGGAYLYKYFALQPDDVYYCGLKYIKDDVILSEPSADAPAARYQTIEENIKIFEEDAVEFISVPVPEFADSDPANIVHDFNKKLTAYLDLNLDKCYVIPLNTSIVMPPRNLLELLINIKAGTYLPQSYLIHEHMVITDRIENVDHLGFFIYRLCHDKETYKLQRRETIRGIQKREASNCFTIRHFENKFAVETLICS

B1: Excitatory amino acid transporter 4 (protein, UniProt O35921 1-561)
chain: MSSHGNSLFLRESGAGGGCLQGLQDSLQQRALRTRLRLQTMTREHVRRFLRRNAFILLTVSAVIIGVSLAFALRPYQLTYRQIKYFSFPGELLMRMLQMLVLPLIVSSRVTGMASLDNKATGRMGMRAAVYYMVTTVIAVFIGILMVTIIHPGKGSKEGLHREGRIETVPTADAFMDLVRNMFPPNLVEACFKQFKTQYSTRVVTRTIVRTDNGSELGASISPPSSAENETSILENVTRALGTLQEVISFEETVPVPGSANGINALGLVVFSVAFGLVIGGMKHKGRVLRDFFDSLNEAIMRLVGIIIWYAPVGILFLIAGKILEMEDMAVLGGQLGMYTLTVIVGLFLHAGGVLPLIYFLVTHRNPFPFIGGILQALITAMGTSSSSATLPITFRCLEEGLGVDRRITRFVLPVGATVNMDGTALYEALAAIFIAQVNNYELNLGQITTISITATAASVGAAGIPQAGLVTMVIVLTSVGLPTEDITLIIAVDWFLDRLRTMTNVLGDSIGAAVIEHLSQRELELQEAELTLPSLGKPYKSLMAQAKGASRGRGGNESVM
B2: Dynamin-1 (protein, UniProt P21575 1-864)
chain: MGNRGMEDLIPLVNRLQDAFSAIGQNADLDLPQIAVVGGQSAGKSSVLENFVGRDFLPRGSGIVTRRPLVLQLVNSTTEYAEFLHCKGKKFTDFEEVRLEIEAETDRVTGTNKGISPVPINLRVYSPHVLNLTLVDLPGMTKVPVGDQPPDIEFQIRDMLMQFVTKENCLILAVSPANSDLANSDALKIAKEVDPQGQRTIGVITKLDLMDEGTDARDVLENKLLPLRRGYIGVVNRSQKDIDGKKDITAALAAERKFFLSHPSYRHLADRMGTPYLQKVLNQQLTNHIRDTLPGLRNKLQSQLLSIEKEVDEYKNFRPDDPARKTKALLQMVQQFAVDFEKRIEGSGDQIDTYELSGGARINRIFHERFPFELVKMEFDEKELRREISYAIKNIHGIRTGLFTPDLAFEATVKKQVQKLKEPSIKCVDMVVSELTSTIRKCSEKLQQYPRLREEMERIVTTHIREREGRTKEQVMLLIDIELAYMNTNHEDFIGFANAQQRSNQMNKKKTSGNQDEILVIRKGWLTINNIGIMKGGSKEYWFVLTAENLSWYKDDEEKEKKYMLSVDNLKLRDVEKGFMSSKHIFALFNTEQRNVYKDYRQLELACETQEEVDSWKASFLRAGVYPERVGDKEKASETEENGSDSFMHSMDPQLERQVETIRNLVDSYMAIVNKTVRDLMPKTIMHLMINNTKEFIFSELLANLYSCGDQNTLMEESAEQAQRRDEMLRMYHALKEALSIIGDINTTTVSTPMPPPVDDSWLQVQSVPAGRRSPTSSPTPQRRAPAVPPARPGSRGPAPGPPPAGSALGGAPPVPSRPGASPDPFGPPPQVPSRPNRAPPGVPSRSGQASPSRPESPRPPFDL
B3: EH domain-containing protein 3 (protein, UniProt Q8R491 1-535)
chain: MFSWLGNDDRRKKDPEVFQTVSEGLKKLYKTKLLPLEEYYRFHEFHSPALEDADFDNKPMVLLVGQYSTGKTTFIRYLLEQDFPGMRIGPEPTTDSFIAVMQGDVEGIIPGNALVVDPKKPFRKLNAFGNAFLNRFVCAQLPNAVLESISVIDTPGILSGEKQRISRGYDFAAVLEWFAERVDRIILLFDAHKLDISDEFSEVIKALKNHEDKMRVVLNKADQIETQQLMRVYGALMWSLGKIVNTPEVIRVYIGSFWSHPLLIPDNRKLFEAEEQDLFKDIQSLPRNAALRKLNDLIKRARLAKVHAYIISSLKKEMPSVFGKDTKKKELVNNLAEIYGRIEREHQISPGDFPNLKRMQDQLQAQDFSKFQPLKSKLLEVVDDMLAHDIAQLMVLVRQEETQRPVQMVKGGAFEGTLQGPFGHGYGEGAGEGIDDAEWVVARDKPMYDEIFYTLSPVDGKITGANAKKEMVRSKLPNSVLGKIWKLADIDKDGMLDDEEFALANHLIKVKLEGHELPSELPAHLLPPSKRKVAE
B4: Amphiphysin (protein, UniProt O08838 1-683)
chain: MADIKTGIFAKNVQKRLNRAQEKVLQKLGKADETKDEQFEEYVQNFKRQEAEGTRLQRELRGYLAAIKGMQEASMKLTESLHEVYEPDWYGREDVKMVGEKCDVLWEDFHQKLVDGSLLTLDTYLGQFPDIKNRIAKRSRKLVDYDSARHHLEALQSSKRKDESRISKAEEEFQKAQKVFEEFNVDLQEELPSLWSRRVGFYVNTFKNVSSLEAKFHKEIAVLCHKLYEVMTKLGDQHADKAFSIQGAPSDSGPLRIAKTPSPPEEASPLPSPTASPNHTLAPASPAPVRPRSPSQTRKGPPVPPLPKVTPTKELQQENIINFFEDNFVPEINVTTPSQNEVLEVKKEETLLDLDFDPFKPDVTPAGSAAATHSPMSQTLPWDLWTTSTDLVQPASGGSFNDFTQPQDTSLFTMQTDQNMAETEQALPTEPQAEEPPTTAAAPTAGLDLGLEMEEPKEEAAIPPGTDAGETVGTEGSTGEEAEAEKAALPAGEGESPEGAKIDVESTELASSESPQAAELEAGAPQEKVIPSVVIEPASNHEGEEHQETTTGTETREATEDVAPQGPAGEKQELATEPTPLDSQAATPAPAGAVDASLSAGDAAQELPPGFLYKVETLHDFEAANSDELTLQRGDVVLVVPSDSEADQDAGWLVGVKESDWLQYRDLATYKGLFPENFTRHLE
B5: Excitatory amino acid transporter 1 (protein, UniProt P24942 1-543)
chain: MTKSNGEEPRMGSRMERFQQGVRKRTLLAKKKVQNITKEDVKSYLFRNAFVLLTVSAVIVGTILGFALRPYKMSYREVKYFSFPGELLMRMLQMLVLPLIISSLVTGMAALDSKASGKMGMRAVVYYMTTTIIAVVIGIIIVIIIHPGKGTKENMYREGKIVQVTAADAFLDLIRNMFPPNLVEACFKQFKTSYEKRSFKVPIQANETLLGAVINNVSEAMETLTRIREEMVPVPGSVNGVNALGLVVFSMCFGFVIGNMKEQGQALREFFDSLNEAIMRLVAVIMWYAPLGILFLIAGKILEMEDMGVIGGQLAMYTVTVIVGLLIHAVIVLPLLYFLVTRKNPWVFIGGLLQALITALGTSSSSATLPITFKCLEENNGVDKRITRFVLPVGATINMDGTALYEALAAIFIAQVNNFDLNFGQIITISITATAASIGAAGIPQAGLVTMVIVLTSVGLPTDDITLIIAVDWFLDRLRTTTNVLGDSLGAGIVEHLSRHELKNRDVEMGNSVIEENEMKKPYQLIAQDNEPEKPVADSETKM
B6: Gamma-aminobutyric acid type B receptor subunit 2 (protein, UniProt O88871 41-940)
chain: WTRGAPRPPPSSPPLSIMGLMPLTKEVAKGSIGRGVLPAVELAIEQIRNESLLRPYFLDLRLYDTECDNAKGLKAFYDAIKYGPNHLMVFGGVCPSVTSIIAESLQGWNLVQLSFAATTPVLADKKKYPYFFRTVPSDNAVNPAILKLLKHFRWRRVGTLTQDVQRFSEVRNDLTGVLYGEDIEISDTESFSNDPCTSVKKLKGNDVRIILGQFDQNMAAKVFCCAFEESMFGSKYQWIIPGWYEPAWWEQVHVEANSSRCLRRSLLAAMEGYIGVDFEPLSSKQIKTISGKTPQQFEREYNSKRSGVGPSKFHGYAYDGIWVIAKTLQRAMETLHASSRHQRIQDFNYTDHTLGKIILNAMNETNFFGVTGQVVFRNGERMGTIKFTQFQDSREVKVGEYNAVADTLEIINDTIRFQGSEPPKDKTIILEQLRKISLPLYSILSALTILGMIMASAFLFFNIKNRNQKLIKMSSPYMNNLIILGGMLSYASIFLFGLDGSFVSEKTFETLCTVRTWILTVGYTTAFGAMFAKTWRVHAIFKNVKMKKKIIKDQKLLVIVGGMLLIDLCILICWQAVDPLRRTVERYSMEPDPAGRDISIRPLLEHCENTHMTIWLGIVYAYKGLLMLFGCFLAWETRNVSIPALNDSKYIGMSVYNVGIMCIIGAAVSFLTRDQPNVQFCIVALVIIFCSTITLCLVFVPKLITLRTNPDAATQNRRFQFTQNQKKEDSKTSTSVTSVNQASTSRLEGLQSENHRLRMKITELDKDLEEVTMQLQDTPEKTTYIKQNHYQELNDILSLGNFTESTDGGKAILKNHLDQNPQLQWNTTEPSRTCKDPIEDINSPEHIQRRLSLQLPILHHAYLPSIGGVDASCVSPCVSPTASPRHRHVPPSFRVMVSGL
B7: Disks large-associated protein 3 (protein, UniProt P97838 1-977)
chain: MRGYHGDRGSHPRPARFADQQHMDVGPAARAPYLLGSREAFSTEPRFCAPRAGLGHLSPEGPLSLSEGPSSVGPEGGPGGVGAGGSSSTFPRMYPGQGPFDTCEDCVGHPQGKGATRLLPTFLDQFEKQLPVQQDGFHTLPYQRGPAGPGPGPGSGAAPEARSESPSRIRHLVHSVQKLFAKSHSLEAPGKRDYNGPKAEGRSSSGGDSYSGPGSGGPPTSHHHHHHHHHHHHQSRHGKRSKSKDRKGDGRHQTKATGWWSSDDNLDSDSGFLGGRPPGEPGGPFCLDAPDGSYRDLSFKGRSGGSEGRCLACTGMSMSLDGQSVKRSAWHTMMVSQGRDGYPGAGPGKGLLGPETKAKARTYHYLQVPQDDWGGYPTGGKDGEIPCRRMRSGSYIKAMGDEESGDSDGSPKTSPKALARRFASRRSSSVDTARINCCVPPRIHPRSSIPGYSRSLTTGQLSEEFNQQLEAVCGSVFGELESQAVDALDLPGCFRMRSHSYLRAIQAGCSQDDDCLPLLAAPASVSGRPGSSFNFRKAPPPIPPGSQAPPRISITAQSSTDSAHESFTAAEGPARRCSSADGLDGPTMGARTLELAPVPPRASPKPPTLIIKTIPGREELRSLARQRKWRPSIGVQVETISDSDTENRSRREFHSIGVQVEEDKRRARFKRSNSVTAGVQADLELEGLAGLATVATEDKALQFGRPFQRQASEPQPGPRAPTYSVFRTVHTQGQWAYREGYPLPYEPPATDGSPGPPPVPAPGPGSGRRDSWMERGSRSLPDSGRTSPCPRDGEWFIKMLRAEVEKLEHWCQQMEREAEDYELPEEILEKIRSAVGSTQLLLSQKVQQFFRLCQQSLDPTAFPVPTFQDLAGFWDLLQLSIEDVTLKFLELQQLKANSWKLLEPKEEKKVPPPIPKKPSRGRGVPVKERSLDSVDRQRQEARKRLLAAKRAASFRHSSATESADSIEIYIPEAQTRL

molecular target: T1, BRI2 (integral membrane protein 2B) (rat (endogenous in brain)); experiment: affinity purification with mass spectrometry; mouse anti-BRI2 antibody (N-terminal region) on Dynabeads Protein G; pre-cleared rat cerebral cortex, hippocampus and cerebellum lysates (50 mM Tris-HCl pH 8.0, 120 mM NaCl, 4% CHAPS), overnight at 4 °C; co-precipitated proteins identified by nano-HPLC-MS/MS; hits absent from the two mock IPs or with a PSM ratio >= 2.0

binding | Binder
binds | B1
binds | B2
binds | B3
binds | B4
binds | B5
binds | B6
binds | B7
